Experimental data reported in PubChem BioAssay AID2551 (National Center for Advancing Translational Sciences (NCATS), 2010).
Out of some 310,000 compounds screened, about 17,000 (5.5%) were called active. Inconclusive means that the source gave no clear call. Such entries were picked first, then a sample of the others. The call rests on the fitted dose curve; in most records, active means well fitted inhibition curve with a large enough effect; inconclusive means small, poorly fitted or top-dose-only effect, or effect the other way; inactive means no such curve, though single readings can be large or run the other way. Potencies of inconclusive entries are doubtful fits and often do not repeat.

Amino acid sequences for entries named in this document (tags omitted). A change or cut given only in a name is not applied to a line headed by its entry.
UniProt P51450: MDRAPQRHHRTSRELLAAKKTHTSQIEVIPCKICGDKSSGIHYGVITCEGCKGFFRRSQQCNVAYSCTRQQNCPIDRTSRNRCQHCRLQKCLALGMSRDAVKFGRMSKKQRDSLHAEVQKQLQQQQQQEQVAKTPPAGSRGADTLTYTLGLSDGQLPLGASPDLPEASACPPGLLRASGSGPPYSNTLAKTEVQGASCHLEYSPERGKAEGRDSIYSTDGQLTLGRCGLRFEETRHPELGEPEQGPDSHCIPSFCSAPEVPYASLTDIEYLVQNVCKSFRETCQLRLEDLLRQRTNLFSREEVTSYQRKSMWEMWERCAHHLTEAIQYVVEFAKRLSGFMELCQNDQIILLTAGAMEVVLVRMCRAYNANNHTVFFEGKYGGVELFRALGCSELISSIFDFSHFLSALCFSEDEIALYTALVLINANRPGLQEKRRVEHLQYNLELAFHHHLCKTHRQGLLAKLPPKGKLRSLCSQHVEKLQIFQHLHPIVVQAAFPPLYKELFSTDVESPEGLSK

biological target: Nuclear receptor ROR-gamma (Mus musculus) (UniProt P51450); test: qHTS for inhibitors of ROR gamma transcriptional activity; details: Drosophila S2 Gal4-RORgamma UAS-luciferase reporter, 20 h; activity change, negative = inhibition: at 53.6 µM (top of the series); further: nearly all actives have a fitted effect of over 60% in size
How it was run: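 Read-out: Photinus luciferase luminescence; inhibitors lower reporter signal. Insect Schneider cells with Gal4-ROR gamma fusion under metallothionein promoter, UAS reporter; 700 uM final copper sulfate induction, 20 hr, ambient temperature.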
On the % scale 0 is the no-effect control and ±100 the full control effect; potency means the concentration at half of the fitted maximal effect.

Potency, active:
C=CCN1CN(CCc2ccccc2)CNC1=S 1.58 µM
Cc1nc2c(-c3ccc(F)cc3)cnn2c(N)c1-c1ccccc1 0.0447 µM
Cc1nnc(N/N=C/C2CC=CCC2)[nH]c1=O (stereo unspecified) 11.2 µM
Cc1ccc(S(=O)(=O)/C=C\C#N)cc1 0.631 µM
Cc1ccc(S(=O)(=O)Nc2ccc(O)c3cccnc23)cc1 10 µM
Cc1ccccc1NC(=O)COC(=O)c1ccc(S(C)(=O)=O)c([N+](=O)[O-])c1 14.1 µM
CCOC(=O)c1cc(-c2ccccc2)sc1NC(=S)Nc1cc(C)ccn1 1 µM
Cc1ccc2nc(-c3ccc(-c4ccccn4)s3)cn2c1 0.178 µM
Cc1cccc(OCCCC(=O)Nc2nccs2)c1C 3.16 µM
O=C(c1cc(-c2ccc(Cl)cc2)on1)N1CCOCC1 10 µM

Potency, inconclusive:
COc1ccc(C(C)=O)cc1CSc1nc2ccccc2c(=O)n1-c1cccc(C)c1 20 µM [inhibitor, single point]
O=C(COC(=O)C1(c2ccc(F)cc2)CCCC1)N1CCN(C(=O)c2ccco2)CC1 14.1 µM [activator, partial curve, poor fit]
O=C(c1cnc(N2CCN(c3ccccn3)CC2)c2ccccc12)N1CCN(c2cccc(Cl)c2)CC1 0.631 µM [activator, full curve]
Cc1cc(NC(=O)CN2CCN(c3ccccc3O)CC2)no1 11.2 µM [activator, single point]
COc1ccc(C2/C=C\CN(C(=O)CC(C)C)CC(=O)N2Cc2ccc(F)cc2)cc1 (stereo unspecified) 14.1 µM [activator, single point]
CC(=O)OCC1(C)CN(c2ccccc2)N(C(=O)c2ccc(F)cc2)C1=O (stereo unspecified) 3.16 µM [inhibitor, single point]
Fc1ccc(NC(=S)Nc2cccc3ccccc23)cc1 12.6 µM [inhibitor, partial curve, poor fit]
CN(C)c1cc(C(F)(F)F)nc(-c2ccccn2)n1 10 µM [inhibitor, partial curve, poor fit]
COc1ccccc1-c1nc2s/c(=C\c3cccs3)c(=O)n2n1 15.8 µM [inhibitor, single point]
CCN1C(=O)[C@H]2[C@@H](c3ccc(C)cc3)N3C(=O)N(c4ccc(C)cc4)C(=O)[C@@]3(Cc3ccc(Cl)cc3)[C@H]2C1=O 12.6 µM [activator, single point]
CC(=O)C1=C(O)C(=O)N(c2ccc(Br)cn2)C1c1ccccc1[N+](=O)[O-] (stereo unspecified) 35.5 µM [inhibitor, single point]
CC(C)(C)NC(=O)CN(Cc1cccs1)C(=O)c1csnn1 2.51 µM [activator, full curve, poor fit]
O=C(CN1C(=O)NC2(CCOc3ccccc32)C1=O)Nc1cccc(Cl)c1 (stereo unspecified) 17.8 µM [activator, single point]
CCOC(=O)c1cc(C(C)(C)C)nc(SC)c1C#N 12.6 µM [activator, single point]
CC1CCN(c2nc(Cl)nc(Nc3ccc([N+](=O)[O-])cc3)n2)CC1 15.8 µM [activator, single point]
FC(F)(F)c1nnc2sc(-c3ccccn3)nn12 28.2 µM [inhibitor, single point]
CCCC(=O)NC1CCCc2c1cnn2-c1ccc(C)c(C)c1 (stereo unspecified) 20 µM [activator, partial curve, poor fit]
COc1ccccc1C(CCN(Cc1cccs1)C(C)=O)c1ccco1 (stereo unspecified) 20 µM [inhibitor, single point]
O=C(NCc1ccc(F)cc1)C1CCN(S(=O)(=O)c2ccc(Br)s2)CC1 10 µM [activator, partial curve]
COc1ccc(NC(=O)CN(C)C(=O)c2ccc(=O)[nH]c2)cc1 11.2 µM [inhibitor, partial curve]
C/C(Cn1nnc([N+](=O)[O-])n1)=N\NC(=O)c1ccncc1 10 µM [inhibitor, partial curve]
O=C(NCC1CCCO1)c1ccc(COc2ccc(Br)cc2)cc1 (stereo unspecified) 35.5 µM [activator, single point]
CC(=O)c1ccc(N2CCN(C(=O)c3cccc(Oc4ccccc4)c3)CC2)cc1 35.5 µM [inhibitor, single point]
Oc1ccc2ccccc2c1C=NCc1ccccc1 11.2 µM [inhibitor, partial curve, poor fit]
Cc1nc(NC(=O)c2ccc(OCC(C)C)cc2)sc1Cc1ccc2c(c1)OCO2 22.4 µM [inhibitor, single point]
COc1ccc(/C=N/Nc2nc(C)cc(=O)[nH]2)cc1OC 14.1 µM [activator, single point]
O=C1/C(=C/c2cccs2)SC(=S)N1CCC(=O)N1CCCCC1CCO (stereo unspecified) 20 µM [inhibitor, single point]
COc1ccc(Nc2cc(C(=O)NCc3cccnc3)c3ccccc3n2)c(OC)c1 31.6 µM [activator, single point]
COc1cc(/C=N/N2CCN(Cc3ccc(Cl)cc3)CC2)cc(Br)c1O 31.6 µM [activator, single point]
CCN(Cc1ccncc1)Cc1c(O)ccc2cc(Br)ccc12 6.31 µM [activator, partial curve]
Nc1ccc(Nc2nc(-c3ccncc3)cs2)cc1 3.98 µM [activator, partial curve]
O=C(NC(NC(=S)Nc1cccc(Cl)c1)C(Cl)(Cl)Cl)OCc1ccccc1 (stereo unspecified) 20 µM [inhibitor, single point]
O=C(N=NC(=O)c1ccc2c(O)n(C3CCCCC3)c(O)c2c1)c1cccnc1 11.2 µM [activator, partial curve]
Cc1noc(C)c1-c1cncnc1NCCN1CCOCC1 1.58 µM [activator, full curve]
Brc1ccc(C2=N[C@@H](Cc3ccccc3)CO2)cc1 44.7 µM [inhibitor, single point]
Cc1ccc(C(=O)CC(=O)c2ccc(C(C)(C)C)cc2)cc1 17.8 µM [inhibitor, single point]
Cc1cc(=O)n2[nH]c(-c3ccc(Cl)cc3)cc2n1 7.94 µM [inhibitor, partial curve, poor fit]
COc1cc(NC(=O)C2CCN(S(=O)(=O)c3cccc4nonc34)CC2)cc(OC)c1 0.708 µM [activator, partial curve]
O=C(C[n+]1cccc(CNC(=O)c2ccc(OC(F)F)cc2)c1)Nc1ccccc1Cl 11.2 µM [inhibitor, single point]
COc1cc(OC)cc(C(=O)NCC(=O)Nc2ccc(-c3ccccc3)cc2)c1 35.5 µM [activator, single point]
CCN(CC)S(=O)(=O)c1ccc2oc(Nc3ccc4c(c3)OCCO4)nc2c1 15.8 µM [activator, single point]
Cc1ccc(OCc2nc(C#N)c(N3CCN(Cc4ccccc4)CC3)o2)cc1 0.0251 µM [inhibitor, full curve, poor fit]
COC(=O)c1sccc1NC(=O)c1c(C)c(-c2cccc(Cl)c2)nc2ccccc12 6.31 µM [inhibitor, single point]
Cc1c(NC(=O)C(CC(=O)O)NCc2ccco2)c(=O)n(-c2ccccc2)n1C (stereo unspecified) 10 µM [inhibitor, partial curve, poor fit]
CC(C)N1CCC(N2CCN(Cc3ccc(-c4ccccc4Cl)o3)CC2CCO)CC1 (stereo unspecified) 12.6 µM [activator, single point]

17 structures already listed, sorted by length of the SMILES, smallest number first.
Potency, inconclusive:
Nc1ccc(Nc2nc(-c3ccncc3)cs2)cc1 3.98 µM [activator, partial curve]
Cc1noc(C)c1-c1cncnc1NCCN1CCOCC1 1.58 µM [activator, full curve]
CN(C)c1cc(C(F)(F)F)nc(-c2ccccn2)n1 10 µM [inhibitor, partial curve, poor fit]
Cc1cc(=O)n2[nH]c(-c3ccc(Cl)cc3)cc2n1 7.94 µM [inhibitor, partial curve, poor fit]
CCCC(=O)NC1CCCc2c1cnn2-c1ccc(C)c(C)c1 (stereo unspecified) 20 µM [activator, partial curve, poor fit]
CC(C)(C)NC(=O)CN(Cc1cccs1)C(=O)c1csnn1 2.51 µM [activator, full curve, poor fit]
COc1ccccc1C(CCN(Cc1cccs1)C(C)=O)c1ccco1 (stereo unspecified) 20 µM [inhibitor, single point]
Cc1ccc(C(=O)CC(=O)c2ccc(C(C)(C)C)cc2)cc1 17.8 µM [inhibitor, single point]
COc1cc(/C=N/N2CCN(Cc3ccc(Cl)cc3)CC2)cc(Br)c1O 31.6 µM [activator, single point]
Cc1ccc(OCc2nc(C#N)c(N3CCN(Cc4ccccc4)CC3)o2)cc1 0.0251 µM [inhibitor, full curve, poor fit]
O=C(CN1C(=O)NC2(CCOc3ccccc32)C1=O)Nc1cccc(Cl)c1 (stereo unspecified) 17.8 µM [activator, single point]
CC1CCN(c2nc(Cl)nc(Nc3ccc([N+](=O)[O-])cc3)n2)CC1 15.8 µM [activator, single point]
Cc1nc(NC(=O)c2ccc(OCC(C)C)cc2)sc1Cc1ccc2c(c1)OCO2 22.4 µM [inhibitor, single point]
CC(=O)c1ccc(N2CCN(C(=O)c3cccc(Oc4ccccc4)c3)CC2)cc1 35.5 µM [inhibitor, single point]
COc1cc(NC(=O)C2CCN(S(=O)(=O)c3cccc4nonc34)CC2)cc(OC)c1 0.708 µM [activator, partial curve]
CC(=O)C1=C(O)C(=O)N(c2ccc(Br)cn2)C1c1ccccc1[N+](=O)[O-] (stereo unspecified) 35.5 µM [inhibitor, single point]
O=C(c1cnc(N2CCN(c3ccccn3)CC2)c2ccccc12)N1CCN(c2cccc(Cl)c2)CC1 0.631 µM [activator, full curve]

Following part:

Activity change, negative = inhibition, inactive:
O=C(O)/C=C/c1cccc(OCc2ccccc2)c1 -39.2%
Cc1ccc(F)c(NC(=O)c2ccc(Cn3cc(Cl)cn3)cc2)c1 10.7%
Cc1[nH]c(C(=O)O)c(C#N)c1C(=O)c1ccccc1 2.19%
Cc1ccc(NS(=O)(=O)c2ccc(-c3ccc(=O)[nH]n3)o2)c(C)c1 18.7%
COc1cc(/C=C2\CCc3ccccc3C2=O)cc(OC)c1OC 21.1%
O=C(CC12CC3CC(CC(C3)C1)C2)NCc1ccccc1 8.19%
CCCCOc1ccc(-c2nnc(-c3ccncc3)o2)cc1 22.2%
Cc1cc(C)nc(NCCC(=O)O)n1 0.0891%
CN(C(=O)Cn1nnc(-c2cccnc2)n1)C1CCCCC1 21.6%
CC(=O)Nc1ccc(NC(=O)CSc2ccc(-c3sc(C)nc3C)nn2)cc1 -14.9%
NCCC[C@H](N)CC(=O)N[C@H]1CNC(=O)[C@@H]([C@@H]2C[C@H](O)N=C(N)N2)NC(=O)/C(=C/NC(N)=O)NC(=O)[C@@H](CO)NC(=O)[C@@H](CO)NC1=O -9.82% [at 16.9 µM]
O=C(Nc1nccs1)c1cc(-c2ccco2)nc2ccccc12 -26.7%
COc1ccc(CCNC(=O)c2cc3c(=O)n(C)c4ccccc4c3n2C)c(OC)c1 -15.4%
O=c1[nH]c(CSc2nnnn2-c2ccc(Cl)cc2)nc2ccccc12 -35.6%
FC(F)(F)c1ccccc1-c1cc(N2CCNCC2)ncn1 -6.61%
O=C(O)COCC(=O)NCc1csc2ccccc12 4.39%
